The M2OR odorant receptor database
The entries are a selection whose mix differs from that of the whole data set. Calls are pooled over several reports, among them a noisy single-well screen. This is one part of the list.

Columns and labels:
Settings in all cases: stereoisomer not certain
[1] = target: T1, OR6M1 (Homo sapiens) (UniProt Q8NGM8)
T1 sequence (whole entry): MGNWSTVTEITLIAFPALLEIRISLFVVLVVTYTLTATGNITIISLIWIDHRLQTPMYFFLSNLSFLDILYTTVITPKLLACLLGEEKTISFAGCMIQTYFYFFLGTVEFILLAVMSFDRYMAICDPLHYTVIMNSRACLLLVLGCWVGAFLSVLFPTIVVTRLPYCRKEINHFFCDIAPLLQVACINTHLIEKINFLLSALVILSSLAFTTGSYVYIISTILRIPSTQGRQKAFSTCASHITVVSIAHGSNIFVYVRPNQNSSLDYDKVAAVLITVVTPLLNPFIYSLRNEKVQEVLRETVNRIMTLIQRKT
Procedure, shortened: (§1)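 Each entry records the cell line, G-protein, co-transfected protein and tags used. Methods varied with the source, often transient luciferase assays in mammalian cell lines. A receptor–molecule pair is called responsive (active) if the original authors judged its signal statistically different from baseline and non-responsive (inactive) otherwise.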

[2] = test system: T2, OR6N1
T2 sequence (whole entry): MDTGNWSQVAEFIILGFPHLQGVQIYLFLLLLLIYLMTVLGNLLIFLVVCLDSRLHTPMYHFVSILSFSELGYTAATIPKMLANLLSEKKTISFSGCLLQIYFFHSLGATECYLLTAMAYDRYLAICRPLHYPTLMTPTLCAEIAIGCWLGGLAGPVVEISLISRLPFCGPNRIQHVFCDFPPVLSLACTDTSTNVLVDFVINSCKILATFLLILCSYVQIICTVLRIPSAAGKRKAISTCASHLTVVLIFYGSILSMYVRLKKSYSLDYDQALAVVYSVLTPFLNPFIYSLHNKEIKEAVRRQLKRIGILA
Procedure, shortened: as §1

[3] = target: T3, OR6N2 (Homo sapiens) (UniProt Q8NGY6)
T3 sequence (whole entry): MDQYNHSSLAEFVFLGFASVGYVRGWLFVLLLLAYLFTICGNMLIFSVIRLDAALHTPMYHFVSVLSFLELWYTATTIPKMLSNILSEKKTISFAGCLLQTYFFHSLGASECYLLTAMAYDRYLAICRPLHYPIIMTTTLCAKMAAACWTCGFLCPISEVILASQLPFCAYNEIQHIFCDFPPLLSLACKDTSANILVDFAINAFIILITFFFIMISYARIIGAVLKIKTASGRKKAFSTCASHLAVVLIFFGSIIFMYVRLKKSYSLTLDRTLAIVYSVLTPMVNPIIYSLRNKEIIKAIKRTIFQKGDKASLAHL
Procedure, shortened: as §1

[4] = target: T4, OR6P1 (Homo sapiens) (UniProt Q8NGX9)
T4 sequence (whole entry): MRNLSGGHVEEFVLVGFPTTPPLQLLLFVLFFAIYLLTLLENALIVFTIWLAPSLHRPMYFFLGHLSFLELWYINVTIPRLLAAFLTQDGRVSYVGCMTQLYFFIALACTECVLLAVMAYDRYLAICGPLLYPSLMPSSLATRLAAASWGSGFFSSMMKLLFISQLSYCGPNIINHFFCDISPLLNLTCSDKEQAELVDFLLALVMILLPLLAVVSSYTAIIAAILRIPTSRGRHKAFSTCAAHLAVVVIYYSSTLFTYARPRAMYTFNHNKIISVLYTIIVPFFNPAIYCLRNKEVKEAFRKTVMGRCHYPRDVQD
Procedure, shortened: as §1

[5] = target: T5, OR6Q1 (Homo sapiens) (UniProt Q8NGQ2)
T5 sequence (whole entry): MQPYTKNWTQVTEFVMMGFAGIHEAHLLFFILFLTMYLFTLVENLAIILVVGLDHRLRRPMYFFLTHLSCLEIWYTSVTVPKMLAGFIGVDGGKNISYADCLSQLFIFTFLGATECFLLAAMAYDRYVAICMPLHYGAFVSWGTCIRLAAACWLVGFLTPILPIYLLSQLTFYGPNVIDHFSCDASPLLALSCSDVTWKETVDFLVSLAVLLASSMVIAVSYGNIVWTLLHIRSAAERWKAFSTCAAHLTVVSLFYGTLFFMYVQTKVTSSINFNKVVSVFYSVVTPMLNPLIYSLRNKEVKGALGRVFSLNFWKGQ
Procedure, shortened: as §1

[6] = test system: T6, OR6S1
T6 sequence (whole entry): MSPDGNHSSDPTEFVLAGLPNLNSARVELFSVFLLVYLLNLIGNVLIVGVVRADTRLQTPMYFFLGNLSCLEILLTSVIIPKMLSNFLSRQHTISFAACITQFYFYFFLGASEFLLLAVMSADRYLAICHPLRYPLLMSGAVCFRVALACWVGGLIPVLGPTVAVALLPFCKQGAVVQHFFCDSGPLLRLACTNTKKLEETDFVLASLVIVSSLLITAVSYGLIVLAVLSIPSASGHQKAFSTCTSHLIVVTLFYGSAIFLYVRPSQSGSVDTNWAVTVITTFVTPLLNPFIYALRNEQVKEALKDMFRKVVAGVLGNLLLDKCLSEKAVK
Procedure, shortened: as §1

[7] = test system: T7, OR6T1
T7 sequence (whole entry): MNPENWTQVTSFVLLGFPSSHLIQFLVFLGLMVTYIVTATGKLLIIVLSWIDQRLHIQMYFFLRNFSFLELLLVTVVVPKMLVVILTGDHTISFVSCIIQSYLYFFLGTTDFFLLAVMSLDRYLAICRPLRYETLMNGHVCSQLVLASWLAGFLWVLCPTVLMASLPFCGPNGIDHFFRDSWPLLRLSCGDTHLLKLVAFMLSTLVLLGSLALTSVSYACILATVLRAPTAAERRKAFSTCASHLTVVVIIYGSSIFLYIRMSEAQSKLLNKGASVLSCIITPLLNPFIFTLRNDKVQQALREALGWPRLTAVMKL
Procedure, shortened: as §1

[8] = target: T8, OR6V1 (Homo sapiens) (UniProt Q8N148)
T8 sequence (whole entry): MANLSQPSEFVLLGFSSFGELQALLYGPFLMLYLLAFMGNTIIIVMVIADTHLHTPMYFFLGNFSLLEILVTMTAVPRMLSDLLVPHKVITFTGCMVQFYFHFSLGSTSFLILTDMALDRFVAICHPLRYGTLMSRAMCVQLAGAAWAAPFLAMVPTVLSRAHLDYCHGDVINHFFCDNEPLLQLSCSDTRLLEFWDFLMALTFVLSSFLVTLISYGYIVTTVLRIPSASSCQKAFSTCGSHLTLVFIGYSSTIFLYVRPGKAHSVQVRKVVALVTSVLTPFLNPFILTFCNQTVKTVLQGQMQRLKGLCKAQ
Procedure, shortened: as §1

[9] = target: T9, OR6X1 (Homo sapiens) (UniProt Q8NH79)
T9 sequence (whole entry): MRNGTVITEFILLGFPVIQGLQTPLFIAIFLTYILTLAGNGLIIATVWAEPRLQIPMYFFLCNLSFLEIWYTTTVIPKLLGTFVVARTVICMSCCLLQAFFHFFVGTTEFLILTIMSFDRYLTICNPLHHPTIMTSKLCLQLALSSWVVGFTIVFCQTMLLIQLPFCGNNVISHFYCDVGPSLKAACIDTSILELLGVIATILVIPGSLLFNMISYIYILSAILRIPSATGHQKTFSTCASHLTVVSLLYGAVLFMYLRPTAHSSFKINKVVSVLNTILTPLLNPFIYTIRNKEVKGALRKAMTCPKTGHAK
Procedure, shortened: as §1

[10] = test system: T10, OR6Y1
T10 sequence (whole entry): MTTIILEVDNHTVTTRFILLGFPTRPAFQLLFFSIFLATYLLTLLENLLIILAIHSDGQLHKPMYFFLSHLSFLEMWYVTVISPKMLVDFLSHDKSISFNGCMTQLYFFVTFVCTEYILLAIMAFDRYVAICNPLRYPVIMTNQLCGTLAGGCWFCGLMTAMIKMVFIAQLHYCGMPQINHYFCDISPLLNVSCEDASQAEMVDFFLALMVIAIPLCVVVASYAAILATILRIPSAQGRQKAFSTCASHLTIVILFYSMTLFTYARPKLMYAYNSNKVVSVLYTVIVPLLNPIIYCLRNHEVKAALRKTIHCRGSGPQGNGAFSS
Procedure, shortened: as §1

[11] = target: T11, OR7A10 (Homo sapiens) (UniProt O76100)
T11 sequence (whole entry): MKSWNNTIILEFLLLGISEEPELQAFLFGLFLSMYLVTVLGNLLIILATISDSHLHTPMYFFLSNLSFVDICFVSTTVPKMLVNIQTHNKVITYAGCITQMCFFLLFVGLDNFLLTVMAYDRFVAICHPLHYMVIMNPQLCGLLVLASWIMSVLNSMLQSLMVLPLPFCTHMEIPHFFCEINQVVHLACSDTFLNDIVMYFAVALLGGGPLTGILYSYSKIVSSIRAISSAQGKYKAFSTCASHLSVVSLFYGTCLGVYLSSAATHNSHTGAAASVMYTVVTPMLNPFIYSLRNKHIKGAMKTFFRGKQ
Procedure, shortened: as §1

[12] = target: T12, OR7A17 (Homo sapiens) (UniProt O14581)
T12 sequence (whole entry): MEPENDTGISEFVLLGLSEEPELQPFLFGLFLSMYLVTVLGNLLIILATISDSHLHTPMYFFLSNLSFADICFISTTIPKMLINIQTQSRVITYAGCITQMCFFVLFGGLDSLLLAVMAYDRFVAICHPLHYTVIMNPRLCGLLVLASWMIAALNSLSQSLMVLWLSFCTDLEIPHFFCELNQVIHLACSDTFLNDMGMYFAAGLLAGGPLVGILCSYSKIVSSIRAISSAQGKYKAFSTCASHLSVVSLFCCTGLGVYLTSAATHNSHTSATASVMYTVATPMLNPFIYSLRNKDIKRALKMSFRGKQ
Procedure, shortened: as §1

[13] = target: T13, OR7A5 (Homo sapiens) (UniProt Q15622)
T13 sequence (whole entry): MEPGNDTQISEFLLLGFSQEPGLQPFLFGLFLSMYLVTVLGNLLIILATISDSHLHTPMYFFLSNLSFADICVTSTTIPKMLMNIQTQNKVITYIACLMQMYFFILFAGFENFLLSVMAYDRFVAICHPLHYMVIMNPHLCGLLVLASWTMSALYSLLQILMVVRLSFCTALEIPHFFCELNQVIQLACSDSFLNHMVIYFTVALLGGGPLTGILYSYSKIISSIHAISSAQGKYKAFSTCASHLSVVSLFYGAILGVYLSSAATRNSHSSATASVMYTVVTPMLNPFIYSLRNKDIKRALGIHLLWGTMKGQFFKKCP
Procedure, shortened: as §1

[14] = test system: T14, OR7C1
T14 sequence (whole entry): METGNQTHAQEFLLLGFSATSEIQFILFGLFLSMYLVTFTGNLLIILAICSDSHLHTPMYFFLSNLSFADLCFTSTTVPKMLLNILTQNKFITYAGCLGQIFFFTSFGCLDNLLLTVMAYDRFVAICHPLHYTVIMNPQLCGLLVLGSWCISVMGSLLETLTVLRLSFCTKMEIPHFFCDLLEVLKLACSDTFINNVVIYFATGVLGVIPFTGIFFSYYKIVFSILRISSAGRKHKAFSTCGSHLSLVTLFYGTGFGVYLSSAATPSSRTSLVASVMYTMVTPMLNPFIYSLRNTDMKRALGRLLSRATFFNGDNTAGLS
Procedure, shortened: as §1

Measured: odorant receptor agonist call

CCCCO
inactive: all assays above

CC(=O)C(C)=O
inactive: all assays above

CC(C)(O)CCCC1=CCC(C=O)CC1 (stereo not drawn)
inactive: [4] | [8] | [9]

CCCCCCCCCC=O
inactive: all assays above

C=CCSCC=C
inactive: all assays above

CC12CCC(C1)C(C)(C)C2=O (stereo not drawn)
inactive: all assays above

CC(=O)c1ccccc1
active: [6]
not listed: [5] | [8] | [9]
inactive: all other assays above

C=CCc1ccc(OC)c(OC)c1
inactive: all assays above

O=C1CCCCCCCCCCCCCCO1
inactive: all assays above

CCCCCOC(C)=O
not listed: [5]
inactive: all other assays above

CC1CCC(C(C)C)C(O)C1 (stereo not drawn)
active: [13]
inactive: all other assays above

CCCCCC(C)=O
not listed: [5] | [8] | [9]
inactive: all other assays above

CCCCCCOC(=O)CCC
inactive: all assays above

CC=Cc1ccc(O)c(OC)c1
active: [1] | [8] | [9]
inactive: all other assays above
